{"sequences": {"note": "The chains behind the UniProt entries cited, without tags or fusion partners. Where a name states a change or a piece, a line headed by the entry shows the natural chain unless it says otherwise.", "UniProt Q9UBU8": "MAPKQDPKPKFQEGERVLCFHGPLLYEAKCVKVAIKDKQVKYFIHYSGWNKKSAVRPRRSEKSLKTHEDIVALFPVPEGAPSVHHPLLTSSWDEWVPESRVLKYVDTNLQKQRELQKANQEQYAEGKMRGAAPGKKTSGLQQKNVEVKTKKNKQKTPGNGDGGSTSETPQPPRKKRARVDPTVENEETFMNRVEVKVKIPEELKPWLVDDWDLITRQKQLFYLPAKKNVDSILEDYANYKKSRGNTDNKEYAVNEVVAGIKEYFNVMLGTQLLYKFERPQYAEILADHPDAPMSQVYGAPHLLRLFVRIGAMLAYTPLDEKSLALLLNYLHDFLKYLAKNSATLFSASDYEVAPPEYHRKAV", "UniProt Q96QT6": "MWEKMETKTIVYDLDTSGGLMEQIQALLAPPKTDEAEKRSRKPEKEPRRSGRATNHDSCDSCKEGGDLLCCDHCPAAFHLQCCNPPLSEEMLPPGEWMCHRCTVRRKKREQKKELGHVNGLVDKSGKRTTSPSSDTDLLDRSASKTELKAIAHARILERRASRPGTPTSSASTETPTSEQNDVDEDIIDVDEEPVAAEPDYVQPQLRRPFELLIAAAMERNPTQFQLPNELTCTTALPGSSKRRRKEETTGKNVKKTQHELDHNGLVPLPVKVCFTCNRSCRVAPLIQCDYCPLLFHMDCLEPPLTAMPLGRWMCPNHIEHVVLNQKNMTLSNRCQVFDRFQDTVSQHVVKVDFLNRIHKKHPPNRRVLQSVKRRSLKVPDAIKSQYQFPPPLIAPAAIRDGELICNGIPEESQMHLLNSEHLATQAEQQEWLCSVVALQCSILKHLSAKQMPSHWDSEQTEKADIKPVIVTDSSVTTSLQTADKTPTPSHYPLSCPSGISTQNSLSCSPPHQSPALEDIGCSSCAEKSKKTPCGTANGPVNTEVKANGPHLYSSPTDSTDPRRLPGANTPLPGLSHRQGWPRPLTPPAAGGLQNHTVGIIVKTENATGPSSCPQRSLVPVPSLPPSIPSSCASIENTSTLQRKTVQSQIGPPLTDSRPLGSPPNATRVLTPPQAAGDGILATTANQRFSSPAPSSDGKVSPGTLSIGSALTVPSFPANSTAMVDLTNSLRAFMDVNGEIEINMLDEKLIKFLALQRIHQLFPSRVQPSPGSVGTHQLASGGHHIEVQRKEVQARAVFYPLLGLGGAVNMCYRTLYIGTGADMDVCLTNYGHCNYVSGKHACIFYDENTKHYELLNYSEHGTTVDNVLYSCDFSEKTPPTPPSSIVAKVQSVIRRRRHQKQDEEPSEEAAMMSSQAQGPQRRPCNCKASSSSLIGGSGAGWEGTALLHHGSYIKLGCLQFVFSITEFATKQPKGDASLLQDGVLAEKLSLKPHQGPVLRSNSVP"}, "source": "paper PMC10156912", "key": {"[1]": {"target": "MORF4L1 (mortality factor 4-like 1) (human) (UniProt Q9UBU8)", "experiment": "cross-linking; XL-MS: freshly purified SIN3B complex at 1.7 μM with DSSO, on ice for 10 min, quenched with Tris pH 8, trypsin digest, LC-MS; both purified"}, "[2]": {"target": "MORF4L1 (mortality factor 4-like 1) (human) (UniProt Q9UBU8)", "experiment": "cryo-EM structure; apo SIN3B complex; SIN3B^FL sample (full-length PHF12, 3.4 Å), SIN3B complex sample (PHF12 1-502, 3.7 Å) and SIN3B^core map (2.8 Å); subunits co-expressed with RbBP7 and co-purified, GraFix (glutaraldehyde) treated; both purified"}}, "note": "These are yes or no findings as the source states them, for the method shown. Some results given as binding are weak or reduced against the parent protein; the word gives no strength."}
{"substance": "PHF12^ΔC-terminus (residues 1-502) (from UniProt Q96QT6 1-502) (domain or fragment)", "values": [{"measurement": "binding", "setting": "[1]", "result": "binds"}, {"measurement": "binding", "setting": "[2]", "result": "binds"}]}
{"substance": "PHF12 (full-length) (from UniProt Q96QT6 1-1004)", "values": [{"measurement": "binding", "setting": "[2]", "result": "binds"}]}
